According to PMC10015162:
No constants are given. Whether binding was seen depends on the method and setting. In cells and extracts the contact can be indirect. Here binding means that the protein was enriched with, or labelled near, the bait; the list need not be complete. One block for each binder: values may come before it.

Chains of the proteins cited; added tags and fusions are not shown.
UniProt Q39011: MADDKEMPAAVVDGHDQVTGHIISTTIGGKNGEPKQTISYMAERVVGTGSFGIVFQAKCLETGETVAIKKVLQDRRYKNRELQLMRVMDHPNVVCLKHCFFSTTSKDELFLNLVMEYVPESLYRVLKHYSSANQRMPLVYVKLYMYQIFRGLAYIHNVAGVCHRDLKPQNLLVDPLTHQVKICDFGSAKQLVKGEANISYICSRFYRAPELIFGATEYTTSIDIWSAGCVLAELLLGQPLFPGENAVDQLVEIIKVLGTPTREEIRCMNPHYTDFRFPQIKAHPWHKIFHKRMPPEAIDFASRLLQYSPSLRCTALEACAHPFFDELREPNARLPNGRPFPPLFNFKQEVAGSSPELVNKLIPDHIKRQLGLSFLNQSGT

Molecular target: BIN2-YFP-TbID (full-length BIN2 fused with YFP and TurboID), in transgenic Arabidopsis (Arabidopsis thaliana) (UniProt Q39011)
Assay: proximity labelling; TbPL-MS: transgenic Arabidopsis seedlings with BIN2-YFP-TbID against YFP-YFP-TbID control, 14N/15N labelling, 50 µM biotin for 3 h, desalting, streptavidin beads, on-bead digestion, LC-MS/MS; BIN2-proximal: ratio >=3 in at least three of four replicates

B1: At1g16860 (protein, UniProt Q9FZ45 1-474)
chain: MGSRYPSHQLSNGLFVSGRPEQPKERAPTMSAVAMPYTGGDIKRSGELGKMFDIPADGTKSRKSGPIPGAPSRSGSFAGTAQSGPGAPMATGRMSGSLASAGSVSMKKTNSGPLSKHGEPLKKSSGPQSGGVTRQNSGSIPILPATGLITSGPITSGPLNSSGAPRKVSGPLDSSGLMKSHMPTVVHNQAVTTLGPEDDFSCLKSFPKPVLWLVVLIFIMGFLAGGFILGAVHNPILLVVVAILFTVVAALFIWNICWGRRGITDFIARYPDADLRTAKNGQHVKVTGVVTCGNVPLESSFHRVPRCVYTSTCLYEYRGWGSKPANSSHRHFTWGLRSSERHVVDFYISDFQSGLRALVKTGSGAKVTPLVDDSVVIDFKQGSEQVSPDFVRWLGKKNLTSDDRIMRLKEGYIKEGSTVSVIGVVQRNDNVLMIVPSSEPLAAGWQWRRCTFPTSLEGIVLRCEDSSNVDAIPV
- binding: binds

B2: At5g11710 (protein, UniProt Q8VY07 1-560)
chain: MDFMKVFDQTVREIKREVNLKVLKVPEMEQKVLDATDNEPWGPHGTALAEIAQATKKFSECQMVMSVLWTRLSETGKDWRYVYKALAVIDYLISNGSERAVDEIIEHTYQISSLTSFEYVEPNGKDVGINVRKKAENIVALLNNKEKISEIRDKAVANRNKYVGLSSTGITYKSGSSASFGGSFQSGSSNFDSYKDRDSREDKNDYESFQKSRRGVKTEEQSYTSKKSFSRYGSTDHDNLSSGKKSPDSAKHRSYVSAAPSNNDDDFDDFDPRGTSSNKPSTGSANQVDLFGGDLIGDFLDSGPTETSSTNNNENFQEADLFADAAFVSASAQGAEFGSQTQKQVDLFSASEPSVTVSSAPPTVDLFASSESVVSPEAKISIPESMATPNIVDPFAAVPMDNFDGSDPFGAFTSHSASVSTGPQAPSVHGSATNTTSPLSFADSKPQHLQKKDPFQVKSGIWADSLSRGLIDLNITAPKKASLADVGVVGDLSNEDGNKASAASYYSGWSMGAGSGLGKTGLYSTQQQQQQQQQQQAPDISDDFFSSLSNQRYQSGGFKQ
- binding: binds

B4: At3g20250 (protein, UniProt Q9LJX4 1-961)
chain: MTTTQSAMRMVEGDHIKNWQASSDSGIFGSLDMAVEDLGFLMKRNRLDSGDQTGKFPSRSESAPPSMEGSFAALRNLLKQQEGSSSEVLSRAIENYDSEEEIRSDPAYVAYYLSNINLNPRLPPPLISRENQHLLRHFGDNNQSPTTSWDNMGIRSSLHSSRTALSTHREEPEDEASSGEQQSYASLAGRRKSIADMIQEDFPLTLSSVFKRPHSAGNRPIAQDIHAISSDTSSEHARRLPESDINSVNLLRETDSLSSDAIASEDPFTTDLASQSFTNAQTERLNARQASHEDNNLSVFGASPPSSVASRMRRNQEDQQSQGRRMPPQYTPSSYQVQASSPQQMSYPRIGGTQDMMQSLPKIATGEVHSTFQSPHGLAPPPMYTSTAAYMTSLSPFYHQNFQSSGMFVPQYNYGGYPPASGIVPQYMSGYPSHEATVPMPYDISSTSSGYNNPRLLPGVSSSGQNIPSLVDPFQLQYFQQAQVDAYAPPFQSSTDSFGQKDQQAVGYMANHEPLNSPLSPGYGLQSPRHMGNYFAVPPGVRVMPQYPGSPLASPVMPSSPVGGMMSHFGRRSETRYHQQGPSRNTGIYPGGWQGNRGGASSIVDDLKRHSFLDELKSPNARKLELSDIAGRVVEFSVDQHGSRFIQQKLEHCSDEEKASVFSEVLPQASKLMTDVFGNYVIQKFIEHGTPAQREELVKQLAGQMVSLSLQMYGCRVIQKALEVIDVDQKTELIRELDGNVLKCVRDQNGNHVIQKCIESMPAGRIGFVIAAFRGQVATLSTHPYGCRVIQRILEHCSDDEETHCIIDEILESAFALAHDQYGNYVTQHVLERGKPDERRQIIEKLTGNVVQMSQHKYASNVVEKCLEHADSTEREFLIEEIMGKSEEDNHLLAMMKDQFANYVVQKVLEISKDQQREILVQRMKIHLQSLRKYTYGKHIVARFEQLFGEESEVSEEGTEG
- binding: binds

B6: At5g05970 (protein, UniProt B3H5K9 1-782)
chain: MMSNLVEPSWRLLAASGGDTVKLFDVSADSGDPCVLSYTPSPGCAVNSVKWNHTNLVVASTGEDKKISLWRKNGQSLGTVPVTGKDGGDSAEECLSAISFSKKGSRYICSGGTGQIVKIWDLQRKLCIKKLKGHTSTITGVMYNCKDEHLASVSVGGDLIVHNLASGARATELKDPNGQVLRLLDYSRSSRHLLVTAGDDGTVHLWDTTGRSPKMSWLKQHSAPTAGVCFSPSNEKIIASVGMDKKLYTYDSGSRRSSSCIAYEAPFSSLAFGDNGYILVAGTSNGRVVFYDIRGKPQPVTVLHAFSNSEDVTSLSWQTSKPVIVNEKNYTSEMALLGSTVEDSVVIPDPLPSTTPSASQSAMAPGSRGVSASTVNASSVEQTPNRNHLWPSGPLGRLHALRANDSYNDDMGVFSPIIDVSSVEKWADSEGYNNKDHLVVDNKPSSLLFPSSSKGYSFGDNGSKEHPIFDWKPSSTSKQDDPRAAFSSFGSITPTASSKSEDSALTPPEAWGGDKFSEKFNQLANEKFSDKFSHLHAPSRLAVSSTGASTSGSMFSSSRDFPLSHGQTNFANASLEFPRIRDFSSTFETSSTQTDNNLPSSPLFTKGITAPGNIDSLRLSPNFTRRFSTYAERISTTSSFSDGASLSLGGSPKIKKTGSETREEVLNHLLARPETVVATEAGAMPLMNQGGLKQSQTDQQQVMGSSNFTLQLFQRTLEGTLDSFQNSIHDDVRNLHIEILRQFHMHEMEMSKVLSSILENQAEQMKELKLLRKENQELRQRL
- binding: binds

B8: At5g03040 (protein, UniProt Q93ZH7 1-461)
chain: MGKKAKWFSSVKKAFSPDSKKSKQKLAEGQNGVISNPPVVDNVRQSSSSPPPALAPREVRVAEVIVERNRDLSPPSTADAVNVTATDVPVVPSSSAPGVVRRATPTRFAGKSNEEAAAILIQTIFRGYLARRALRAMRGLVRLKLLMEGSVVKRQAANTLKCMQTLSRVQSQIRARRIRMSEENQARQKQLLQKHAKELAGLKNGDNWNDSIQSKEKVEANLLSKYEATMRRERALAYSYSHQQNWKNNSKSGNPMFMDPSNPTWGWSWLERWMAGRPLESSEKEQSNSNNDNAASVKGSINRNEAAKSLTRNGSTQPNTPSSARGTPRNKNSFFSPPTPSRLNQSSRKSNDDDSKSTISVLSERNRRHSIAGSSVRDDESLAGSPALPSYMVPTKSARARLKPQSPLGGTTQENEGFTDKASAKKRLSYPTSPALPKPRRFSAPPKVESGGVTVTNGAGS
- binding: binds

Second part, the binder after the results:

- binding: binds
B3: KINESIN LIKE PROTEIN FOR ACTIN BASED CHLOROPLAST MOVEMENT 1 (protein, UniProt Q9LX99 1-1273)
chain: MADQRSKTNRWNWEVSGFEPRKSSSNASFAESTGHRTTGPLLRRNSISTPSLPPKQAIASKVNGLKEKVKLAKEDYLELRQEATDLQEYSNAKLDRVTRYLGVLAEKSRKLDQFVLETEARISPLINEKKRLFNDLLTAKGNIKVFCRARPLFEDEGPSVIEFPGDCTICVNTSDDTLSNPKKDFEFDRVYGPHVGQAALFSDVQPFVQSALDGSNVSILSYGQTNAGKTYTMEGSNHDRGLYARCFEELFDLANSDSTSTSRFSFSLSVFEIYNEQIRDLLSETQSNLPNINMDLHESVIELGQEKVDNPLEFLGVLKSAFLNRGNYKSKFNVTHLIVSIHIYYSNTITGENIYSKLSLVDLAGSEGLIMENDSGDHVTDLLHVMNSISALGDVLSSLTSGKDSIPYDNSILTRVLADSLGGSSKTLMIVNICPSVQTLSETISCLNYAARARNTVPSLGNRDTIKKWRDVASDARKELLEKERENQNLKQEVVGLKKALKDANDQCVLLYSEVQRAWKVSFTLQSDLKSENIMLVDKHRLEKEQNSQLRNQIAQFLQLDQEQKLQMQQQDSAIQNLQAKITDLESQVSEAVRSDTTRTGDALQSQDIFSPIPKAVEGTTDSSSVTKKLEEELKKRDALIERLHEENEKLFDRLTERSMAVSTQVLSPSLRASPNIQPANVNRGEGYSAEAVALPSTPNKNNGAITLVKSGTDLVKTTPAGEYLTAALNDFDPEEYEGLAAIADGANKLLMLVLAAVIKAGASREHEILAEIRDSVFSFIRKMEPRRVMDTMLVSRVRILYIRSLLARSPELQTIRVSPVECFLEKPNTGRSKSTSRGSSPGRSPVRYLDTQIHGFKVNIKAERRNKLASVVSRMRGLEQDAGRQQVTGVKLREMQDEAKSFAIGNKALAALFVHTPAGELQRQIRLWLAENFEFLSVTSDDVSGGNGGQLELLSTAIMDGWMAGLGAAVPPHTDALGQLLSEYAKRVYTSQMQHMKDIAGTLAAEEAEDAGQVSKLRSALESVDHKRRKILQQMKSDAALLNLEEGSSPIPNPSTAAEDSRLASLISLDGILKQVKEITRQASVHVLSKSKKKALLESLDELTERMPSLLDIDHPCAQREIATAHQLVETIPEQEDTNILEQSHDRRPSLESISSGETDVSQWNVLQFNTGSSAPFIIKCGGNNNSELVIKADARVQEPKGGEIVRVVPRPSVLVNMSLEEMKQMFVQLPEALSLLALARTADGTRARYSRLYKTLAMKVPSLKDLVSELE

- binding: binds
B5: J-DOMAIN PROTEIN REQUIRED FOR CHLOROPLAST ACCUMULATION RESPONSE 1 (protein, UniProt Q9C9Q4 1-651)
chain: MQTLPSSETVLLGSNSAPPVLRSPGGDDVDIDFGDVFGGPPKRRSKVTSNEVTRHSFSESALRRRDVIVDVGDLLPQDEKPVFGEDTSSVRRRFTTDDFFDDIFRVNESSSLPGSRILSPAHKPESSSGTSSPSQFSLPAKATEIPTFNLAATRSLNKNKETVSSSPLSRTSSKADVVSTAKSYSDDCDDPPQVFVTGKGRQFHFSIYKWPNKGVPVVIWGSSRLSSMSKAEETTPVPLSDYRKTSVVEKLGKNEEGDGKSGLSGLKDVKKTSLKRPGVQTKEEKTETDLKSEQAFFGVSKAREANVKPLDSVESEQAFSGVSKAHEATTVKPLHSIFHEEDERQDEKIVSEREVRKGKSKAKNTRSFTEDSRTKKKSQGTKSSLDSSPIPDKSSFASSSAAPEVGKDGVKGKVSDFVKIFSKGASVGAGGESLGQSSRWRAKETPKTDIIHDGSNAKETVNIPDQQKKSTPDIPAMNRDQKPSQSTQKKDSDRESMNYKAPGDTVQEERQEPSTTHTTSEDIDEPFHVNFDVEDITQDENKMEEANKDAEEIKNIDAKIRKWSSGKSGNIRSLLSTLQYILWSGSGWKPVPLMDMIEGNAVRKSYQRALLILHPDKLQQKGASANQKYMAEKVFELLQEAWDHFNTLGPV

- binding: binds
B7: MILDEW … LOCUS O 2 (protein, UniProt Q9SXB6 1-573)
chain: MADQVKERTLEETSTWAVAVVCFVLLFISIVLEHSIHKIGTWFKKKHKQALFEALEKVKAELMLLGFISLLLTIGQTPISNICISQKVASTMHPCSAAEEAKKYGKKDAGKKDDGDGDKPGRRLLLELAESYIHRRSLATKGYDKCAEKGKVAFVSAYGIHQLHIFIFVLAVVHVVYCIVTYAFGKIKMRTWKSWEEETKTIEYQYSNDPERFRFARDTSFGRRHLNFWSKTRVTLWIVCFFRQFFGSVTKVDYLALRHGFIMAHFAPGNESRFDFRKYIQRSLEKDFKTVVEISPVIWFVAVLFLLTNSYGLRSYLWLPFIPLVVILIVGTKLEVIITKLGLRIQEKGDVVRGAPVVQPGDDLFWFGKPRFILFLIHLVLFTNAFQLAFFAWSTYEFNLNNCFHESTADVVIRLVVGAVVQILCSYVTLPLYALVTQMGSKMKPTVFNDRVATALKKWHHTAKNETKHGRHSGSNTPFSSRPTTPTHGSSPIHLLHNFNNRSVENYPSSPSPRYSGHGHHEHQFWDPESQHQEAETSTHHSLAHESSEPVLASVELPPIRTSKSLRDFSFKK
